# Measurements from patent US7670838B2, “Coupling of excitation and neurogenesis in neural stem/progenitor cells” (priority 2004, dated 2010).
# For at least one compound, name, drawing or mass did not settle the structure.
# Test system: adult hippocampal NPCs in vivo
# Assay: In vivo neurogenesis assay (BrdU labeling, hippocampus)
# Design: species or system rat
# Conditions: adult rats; 4 mg/kg daily for 1 week
compound,measurement,value
COC(=O)C1=C(C)NC(C)=C(C(=O)OC)C1c1ccccc1[N+](=O)[O-] [nifedipine],fraction of newborn (BrdU+) cells assuming the neuronal phenotype (Dcx+),significantly reduced
